Laboratory results as given in patent US20110082119A1, “PROPHYLACTIC/AMELIORATING OR THERAPEUTIC AGENT FOR NON-ALCOHOLIC STEATOHEPATITIS” (priority 2008, published 2011).
For at least one compound, name, drawing or mass did not settle the structure.

Columns and labels:
[1] = system: rats fed with methionine-choline-deficient diet (NASH-like lesion in the liver); format: in vivo; details: MCD diet 20 weeks, oral once a day, compared to the control group; EPA-E 1000, metformin hydrochloride 40, acetylsalicylic acid 20, simvastatin 5, valsartan 20 mg/kg
Experimental: Pharmacological action of EPA-E and/or metformin hydrochloride, acetylsalicylic acid, simvastatin, or valsartan on liver disorder and fibrosis is confirmed by using rats that have been fed with methionine-choline-deficient diet (hereinafter referred to as “MCD diet”) known to develop a NASH-like lesion in the liver.
7 week old male Wister rats are allowed to freely take normal diet (F-1, Funabashi Farm) or MCD diet (Dyets, Inc.) for 20 weeks under 12 hour light-dark cycles at 23° C. […] The administration is conducted orally once a day. The normal group and the control group are orally administered with 5% aqueous solution of gum arabic once a day. After 20 weeks, blood is collected for biochemical tests of the plasma, and pathological tests of the liver are also conducted.

NASH patient = details: oral 20 mg/day for 6 months, Non-Patent Literature 7; cited from earlier work

CCC(C)(C)C(=O)O[C@H]1C[C@@H](C)C=C2C=C[C@H](C)[C@H](CC[C@@H]3C[C@@H](O)CC(=O)O3)[C@H]21 [simvastatin]
plasma ALT [1]: suppression of the increase

CC[C@H](C)C(=O)O[C@H]1C[C@H](O)C=C2C=C[C@H](C)[C@H](CC[C@@H](O)C[C@@H](O)CC(=O)O)[C@H]21 [pravastatin]
liver tissue observation (NASH patient): improve
serum ALT level (NASH patient): improve
